The supplement of paper PMC4604168 (melanoma cell lines)
The other results are listed elsewhere or left out. Single values are uncertain, as repeats are few or missing.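 The apoptosis fraction was the count of cleaved-PARP antibody-stained nuclei relative to all DNA-stained nuclei, imaged in 1,536-well plates. Screening doses were set so most cells survived, and baseline and induced cleaved-PARP levels vary greatly across cell lines.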

What follows are compounds tested on A101D (assay: cleaved PARP positive nuclei fraction relative to DMSO control; melanoma cells; higher = more apoptosis). Conditions: library dose: low library concentration; 72 h.
`CN(c1ncccc1CNc1nc(Nc2ccc3c(c2)CC(=O)N3)ncc1C(F)(F)F)S(C)(=O)=O` + CO[C@@H]1[C@H](N(C)C(=O)c2ccccc2)C[C@H]2O[C@]1(C)n1c3ccccc3c3c4c(c5c6ccccc6n2c5c31)C(=O)NC4 [Midostaurin] (first compound 0.08 µM, partner dose 0.08 µM) was tested, and the “cleaved PARP positive nuclei fraction” value was 203%. With `Cn1sc(=O)n(Cc2ccccc2)c1=O` + c1cc(-c2cnn3cc(-c4ccc(OCCN5CCCCC5)cc4)cnc23)ccn1 [Dorsomorphin] (first compound 0.4 µM, partner dose 0.4 µM) the “cleaved PARP positive nuclei fraction” value was 44.2%. `CC(=O)O[C@@]12CO[C@@H]1C[C@H](O)[C@@]1(C)C(=O)[C@H](O)C3=C(C)[C@@H](OC(=O)[C@H](O)[C@@H](NC(=O)OC(C)(C)C)c4ccccc4)C[C@@](O)([C@@H](OC(=O)c4ccccc4)[C@H]21)C3(C)C` [Docetaxel] + N#Cc1c(O)c2c(-c3ccc(-c4ccccc4O)cc3)csc2[nH]c1=O [A769662] (first compound 0.0001 µM, partner dose 2 µM) was tested, and the “cleaved PARP positive nuclei fraction” value was 55%. In the case of `Cn1cnc2c(F)c(Nc3ccc(Br)cc3Cl)c(C(=O)NOCCO)cc21` [selumetinib] + OCCn1cc(-c2cnc3nnn(Cc4ccc5ncccc5c4)c3n2)cn1 [PF04217903] (first compound 0.015 µM, partner dose 1 µM), the “cleaved PARP positive nuclei fraction” value is reported as 85.4%. In the case of `Cn1cnc2c(F)c(Nc3ccc(Br)cc3Cl)c(C(=O)NOCCO)cc21` [selumetinib] + Oc1cc(-c2nc(-c3ccccc3)[nH]c2-c2ccncc2)ccc1Cl [L779450] (first compound 0.015 µM, partner dose 0.2 µM), the “cleaved PARP positive nuclei fraction” value is reported as 80.3%. In the case of `Cn1sc(=O)n(Cc2ccccc2)c1=O` + CCCCCCCCCCCC1=C(O)C(=O)C=C(O)C1=O [Embelin] (first compound 0.4 µM, partner dose 1.2 µM), the “cleaved PARP positive nuclei fraction” value is reported as 31%. For `CCN(CC)CCNC(=O)c1c(C)[nH]c(/C=C2\C(=O)Nc3ccc(F)cc32)c1C` [sunitinib] + CCc1ccc(CCOc2ccc(CC3SC(=O)NC3=O)cc2)nc1 [pioglitazone] (first compound 0.4 µM, partner dose 2 µM), the “cleaved PARP positive nuclei fraction” value was 29.7%.
